Literature values, collected in patent US9682109B2, “Antiviral resistance mutants and applications thereof” (ABL SA, priority 2005, dated 2017).
For at least one compound, name, drawing or mass did not settle the structure.

Columns and labels:
HBV = conditions: chronically infected patients after orthotopic liver transplantation (OLT)

## Nc1ccn([C@@H]2CS[C@H](CO)O2)c(=O)n1 [LMV, (−)-β-2′-deoxy-3′-thiacytidine]
HBV replication
  inhibitor of HBV replication: particularly potent inhibitor
HBV
  HBV DNA titres in sera: reduces HBV DNA titres
